Measurements reported in doi:10.1101/2023.10.18.562906.

The chains behind the UniProt entries cited, without tags or fusion partners.
UniProt Q8IWT3: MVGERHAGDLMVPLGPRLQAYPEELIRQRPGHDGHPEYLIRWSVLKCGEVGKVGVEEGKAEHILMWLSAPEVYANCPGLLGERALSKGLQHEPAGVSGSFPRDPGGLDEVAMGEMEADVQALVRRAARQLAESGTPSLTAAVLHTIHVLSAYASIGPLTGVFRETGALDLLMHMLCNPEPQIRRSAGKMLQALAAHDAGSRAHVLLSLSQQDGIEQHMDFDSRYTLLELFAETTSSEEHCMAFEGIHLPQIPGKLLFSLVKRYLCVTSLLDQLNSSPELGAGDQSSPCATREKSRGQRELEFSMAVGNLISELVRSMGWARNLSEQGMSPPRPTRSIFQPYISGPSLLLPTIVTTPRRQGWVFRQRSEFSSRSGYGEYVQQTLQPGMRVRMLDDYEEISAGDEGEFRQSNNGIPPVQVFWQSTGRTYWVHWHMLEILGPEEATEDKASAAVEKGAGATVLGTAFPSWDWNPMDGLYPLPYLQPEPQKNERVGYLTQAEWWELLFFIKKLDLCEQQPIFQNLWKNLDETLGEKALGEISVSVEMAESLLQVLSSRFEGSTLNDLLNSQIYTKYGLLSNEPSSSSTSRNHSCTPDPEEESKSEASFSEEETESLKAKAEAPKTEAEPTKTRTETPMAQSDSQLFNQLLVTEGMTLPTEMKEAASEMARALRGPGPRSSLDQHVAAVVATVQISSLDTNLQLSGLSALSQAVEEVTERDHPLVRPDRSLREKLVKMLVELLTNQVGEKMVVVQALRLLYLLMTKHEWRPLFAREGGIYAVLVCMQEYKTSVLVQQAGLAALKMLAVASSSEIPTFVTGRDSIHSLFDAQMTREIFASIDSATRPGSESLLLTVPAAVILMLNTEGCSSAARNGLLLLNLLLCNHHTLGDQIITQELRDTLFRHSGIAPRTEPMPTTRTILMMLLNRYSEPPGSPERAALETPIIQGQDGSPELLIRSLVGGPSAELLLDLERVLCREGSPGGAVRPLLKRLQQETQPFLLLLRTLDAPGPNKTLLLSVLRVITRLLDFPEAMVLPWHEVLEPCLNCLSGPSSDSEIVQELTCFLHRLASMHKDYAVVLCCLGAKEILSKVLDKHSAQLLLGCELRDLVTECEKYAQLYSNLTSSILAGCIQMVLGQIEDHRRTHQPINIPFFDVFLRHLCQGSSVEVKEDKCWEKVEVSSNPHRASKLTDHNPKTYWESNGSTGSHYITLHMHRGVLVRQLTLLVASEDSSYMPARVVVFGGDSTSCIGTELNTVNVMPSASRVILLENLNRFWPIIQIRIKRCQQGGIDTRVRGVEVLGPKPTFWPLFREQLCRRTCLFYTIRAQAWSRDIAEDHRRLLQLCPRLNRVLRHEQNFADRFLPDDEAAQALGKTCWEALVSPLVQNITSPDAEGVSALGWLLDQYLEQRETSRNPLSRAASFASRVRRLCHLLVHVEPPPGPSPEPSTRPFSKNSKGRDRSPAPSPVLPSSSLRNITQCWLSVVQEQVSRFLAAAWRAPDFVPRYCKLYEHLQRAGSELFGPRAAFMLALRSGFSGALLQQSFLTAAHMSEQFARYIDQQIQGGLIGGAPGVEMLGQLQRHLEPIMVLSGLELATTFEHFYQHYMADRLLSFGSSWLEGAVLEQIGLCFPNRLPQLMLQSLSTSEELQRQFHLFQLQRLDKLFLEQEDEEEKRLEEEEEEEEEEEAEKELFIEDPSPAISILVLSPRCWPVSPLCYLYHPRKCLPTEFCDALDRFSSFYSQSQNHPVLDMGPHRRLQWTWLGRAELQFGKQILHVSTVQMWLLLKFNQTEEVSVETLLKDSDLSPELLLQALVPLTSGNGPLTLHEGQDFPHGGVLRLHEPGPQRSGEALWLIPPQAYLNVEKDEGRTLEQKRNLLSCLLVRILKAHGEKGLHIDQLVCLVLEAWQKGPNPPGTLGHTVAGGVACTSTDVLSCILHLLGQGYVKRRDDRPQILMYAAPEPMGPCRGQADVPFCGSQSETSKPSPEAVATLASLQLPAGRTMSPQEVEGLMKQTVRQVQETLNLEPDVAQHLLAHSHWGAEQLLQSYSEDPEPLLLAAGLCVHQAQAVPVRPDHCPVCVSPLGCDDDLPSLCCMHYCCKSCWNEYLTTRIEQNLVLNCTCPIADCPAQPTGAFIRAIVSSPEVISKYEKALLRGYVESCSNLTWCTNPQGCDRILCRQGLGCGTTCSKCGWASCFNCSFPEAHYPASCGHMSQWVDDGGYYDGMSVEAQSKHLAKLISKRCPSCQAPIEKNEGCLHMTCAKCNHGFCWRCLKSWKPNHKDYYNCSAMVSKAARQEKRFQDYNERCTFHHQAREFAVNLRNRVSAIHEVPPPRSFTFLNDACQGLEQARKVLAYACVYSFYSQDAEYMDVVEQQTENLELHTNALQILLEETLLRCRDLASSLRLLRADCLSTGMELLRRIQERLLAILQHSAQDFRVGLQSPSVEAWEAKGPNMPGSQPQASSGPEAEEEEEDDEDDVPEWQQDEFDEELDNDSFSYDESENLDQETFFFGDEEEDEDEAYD
UniProt P07947: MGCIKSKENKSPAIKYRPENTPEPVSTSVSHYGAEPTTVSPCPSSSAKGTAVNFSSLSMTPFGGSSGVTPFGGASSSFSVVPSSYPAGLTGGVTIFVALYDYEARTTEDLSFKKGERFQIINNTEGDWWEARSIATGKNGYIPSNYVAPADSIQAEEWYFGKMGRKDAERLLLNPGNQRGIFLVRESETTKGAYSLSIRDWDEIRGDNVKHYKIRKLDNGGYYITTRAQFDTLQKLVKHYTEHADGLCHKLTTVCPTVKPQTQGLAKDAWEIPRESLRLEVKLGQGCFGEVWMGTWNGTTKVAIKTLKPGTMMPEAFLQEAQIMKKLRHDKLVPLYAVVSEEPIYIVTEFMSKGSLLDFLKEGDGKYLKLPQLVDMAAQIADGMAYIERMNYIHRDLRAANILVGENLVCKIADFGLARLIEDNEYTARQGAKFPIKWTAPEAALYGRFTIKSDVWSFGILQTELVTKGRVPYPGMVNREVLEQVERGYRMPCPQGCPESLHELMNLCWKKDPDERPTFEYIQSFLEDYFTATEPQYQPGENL
UniProt Q96CV9: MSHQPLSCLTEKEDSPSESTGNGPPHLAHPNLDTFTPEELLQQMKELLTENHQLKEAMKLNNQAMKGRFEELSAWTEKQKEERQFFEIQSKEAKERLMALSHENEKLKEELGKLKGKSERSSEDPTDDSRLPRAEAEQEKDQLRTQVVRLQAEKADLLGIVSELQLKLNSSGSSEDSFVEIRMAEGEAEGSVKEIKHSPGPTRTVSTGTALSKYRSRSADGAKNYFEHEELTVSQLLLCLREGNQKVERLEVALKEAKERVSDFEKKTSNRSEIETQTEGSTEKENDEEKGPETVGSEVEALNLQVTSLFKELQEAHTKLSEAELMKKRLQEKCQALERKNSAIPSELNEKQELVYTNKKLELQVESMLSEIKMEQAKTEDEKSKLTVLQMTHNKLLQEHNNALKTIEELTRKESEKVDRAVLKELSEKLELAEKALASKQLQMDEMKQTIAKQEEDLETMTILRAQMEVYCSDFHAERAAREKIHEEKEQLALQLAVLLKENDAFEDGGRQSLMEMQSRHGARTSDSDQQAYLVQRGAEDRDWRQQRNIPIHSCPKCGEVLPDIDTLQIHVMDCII
UniProt O43791: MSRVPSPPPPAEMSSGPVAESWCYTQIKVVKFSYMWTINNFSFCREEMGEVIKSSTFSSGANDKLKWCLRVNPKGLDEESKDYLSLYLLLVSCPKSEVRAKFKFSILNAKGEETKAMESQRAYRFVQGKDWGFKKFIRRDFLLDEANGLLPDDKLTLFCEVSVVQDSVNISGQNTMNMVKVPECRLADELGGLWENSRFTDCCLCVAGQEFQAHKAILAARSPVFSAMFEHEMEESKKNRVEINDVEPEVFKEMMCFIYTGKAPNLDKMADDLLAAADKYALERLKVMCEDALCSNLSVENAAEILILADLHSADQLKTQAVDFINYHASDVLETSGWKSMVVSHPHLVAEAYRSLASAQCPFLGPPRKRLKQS
UniProt Q12923: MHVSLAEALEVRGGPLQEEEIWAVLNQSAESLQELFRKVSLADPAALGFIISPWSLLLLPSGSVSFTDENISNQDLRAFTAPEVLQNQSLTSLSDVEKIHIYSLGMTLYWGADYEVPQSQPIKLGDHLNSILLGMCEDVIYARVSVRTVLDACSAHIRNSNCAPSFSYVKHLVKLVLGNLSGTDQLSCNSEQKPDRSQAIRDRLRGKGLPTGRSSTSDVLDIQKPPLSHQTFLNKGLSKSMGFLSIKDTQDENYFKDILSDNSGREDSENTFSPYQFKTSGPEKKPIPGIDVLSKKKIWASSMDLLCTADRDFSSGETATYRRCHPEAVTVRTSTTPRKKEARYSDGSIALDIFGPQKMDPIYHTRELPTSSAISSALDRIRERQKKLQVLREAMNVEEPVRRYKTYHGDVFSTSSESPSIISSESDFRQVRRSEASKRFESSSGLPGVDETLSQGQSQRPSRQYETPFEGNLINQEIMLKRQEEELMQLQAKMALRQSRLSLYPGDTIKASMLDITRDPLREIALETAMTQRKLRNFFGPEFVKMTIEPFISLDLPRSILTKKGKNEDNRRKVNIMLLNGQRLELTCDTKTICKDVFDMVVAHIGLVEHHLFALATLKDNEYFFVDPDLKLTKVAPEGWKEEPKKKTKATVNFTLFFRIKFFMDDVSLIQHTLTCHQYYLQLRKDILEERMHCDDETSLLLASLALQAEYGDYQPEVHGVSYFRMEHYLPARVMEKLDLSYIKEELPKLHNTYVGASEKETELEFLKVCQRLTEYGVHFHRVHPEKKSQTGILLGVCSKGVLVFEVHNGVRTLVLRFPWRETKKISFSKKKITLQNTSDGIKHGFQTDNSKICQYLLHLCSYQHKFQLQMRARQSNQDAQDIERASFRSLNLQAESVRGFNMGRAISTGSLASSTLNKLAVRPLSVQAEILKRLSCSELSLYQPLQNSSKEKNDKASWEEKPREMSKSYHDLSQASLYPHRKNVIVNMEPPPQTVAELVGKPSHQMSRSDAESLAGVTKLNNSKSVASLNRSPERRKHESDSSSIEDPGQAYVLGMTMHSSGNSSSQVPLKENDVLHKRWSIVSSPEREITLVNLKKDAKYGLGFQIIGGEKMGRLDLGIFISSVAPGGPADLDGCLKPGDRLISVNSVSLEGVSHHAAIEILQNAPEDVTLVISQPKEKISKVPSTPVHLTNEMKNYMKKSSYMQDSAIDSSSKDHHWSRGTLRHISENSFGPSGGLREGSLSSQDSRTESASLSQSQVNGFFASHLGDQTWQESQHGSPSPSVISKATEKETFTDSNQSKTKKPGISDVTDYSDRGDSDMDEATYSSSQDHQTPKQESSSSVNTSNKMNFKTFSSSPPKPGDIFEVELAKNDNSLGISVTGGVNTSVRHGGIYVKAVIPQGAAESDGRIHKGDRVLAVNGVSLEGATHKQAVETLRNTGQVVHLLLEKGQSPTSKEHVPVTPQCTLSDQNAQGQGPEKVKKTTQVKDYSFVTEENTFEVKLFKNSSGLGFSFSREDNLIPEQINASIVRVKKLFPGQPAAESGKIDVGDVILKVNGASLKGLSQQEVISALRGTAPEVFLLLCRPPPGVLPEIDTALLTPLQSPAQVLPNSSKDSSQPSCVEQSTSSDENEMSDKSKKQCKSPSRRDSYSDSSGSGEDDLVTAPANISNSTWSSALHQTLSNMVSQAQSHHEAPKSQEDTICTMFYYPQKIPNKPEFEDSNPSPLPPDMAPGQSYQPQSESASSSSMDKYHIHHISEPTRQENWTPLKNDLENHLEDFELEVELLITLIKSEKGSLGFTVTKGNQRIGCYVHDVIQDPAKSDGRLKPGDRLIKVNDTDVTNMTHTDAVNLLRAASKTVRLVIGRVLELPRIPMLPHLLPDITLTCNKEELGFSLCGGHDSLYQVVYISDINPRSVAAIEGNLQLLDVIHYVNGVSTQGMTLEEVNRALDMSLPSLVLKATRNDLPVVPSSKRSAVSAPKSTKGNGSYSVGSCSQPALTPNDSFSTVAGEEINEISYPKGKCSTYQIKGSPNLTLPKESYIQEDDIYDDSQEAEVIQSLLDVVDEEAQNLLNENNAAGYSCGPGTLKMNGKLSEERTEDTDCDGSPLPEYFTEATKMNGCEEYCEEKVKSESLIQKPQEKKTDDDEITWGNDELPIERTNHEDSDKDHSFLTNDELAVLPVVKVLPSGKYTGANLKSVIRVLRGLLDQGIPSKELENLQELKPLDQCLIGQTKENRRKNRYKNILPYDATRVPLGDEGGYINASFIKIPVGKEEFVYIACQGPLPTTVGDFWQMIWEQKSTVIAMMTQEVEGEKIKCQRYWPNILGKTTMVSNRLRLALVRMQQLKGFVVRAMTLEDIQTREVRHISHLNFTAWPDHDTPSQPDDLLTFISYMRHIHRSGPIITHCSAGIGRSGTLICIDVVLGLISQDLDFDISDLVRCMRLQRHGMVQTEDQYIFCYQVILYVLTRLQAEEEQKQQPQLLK

Legend:
[1] = molecular target: Cul9 (bait of the proximity-dependent biotin (BioID2) experiment) (UniProt Q8IWT3); assay: proximity labelling
[2] = molecular target: Cul9 (bait of the Cul9-complex analysed by MS/MS) (UniProt Q8IWT3); assay: affinity purification with mass spectrometry
[3] = molecular target: Cul9 (bait of the proximity-dependent biotin (BioID2) experiment) (UniProt Q8IWT3); assay: proximity labelling; remark: listed apart in the source

Yes1 (found in the BioID2 experiment) (from UniProt P07947 1-543) (enzyme)
binding [1]: binds

p62 (found in the BioID2 experiment) (from UniProt Q13501 1-440)
binding [1]: binds

OPTN (from UniProt Q96CV9 1-577)
binding [1]: no binding

SPOP (from UniProt O43791 1-374)
binding [2]: binds

tyrosine phosphatase PTPN13 (from UniProt Q12923 1-2485) (enzyme)
binding [2]: binds

B1: NDP52 (protein, UniProt Q13137 1-446)
chain: MEETIKDPPTSAVLLDHCHFSQVIFNSVEKFYIPGGDVTCHYTFTQHFIPRRKDWIGIFRVGWKTTREYYTFMWVTLPIDLNNKSAKQQEVQFKAYYLPKDDEYYQFCYVDEDGVVRGASIPFQFRPENEEDILVVTTQGEVEEIEQHNKELCKENQELKDSCISLQKQNSDMQAELQKKQEELETLQSINKKLELKVKEQKDYWETELLQLKEQNQKMSSENEKMGIRVDQLQAQLSTQEKEMEKLVQGDQDKTEQLEQLKKENDHLFLSLTEQRKDQKKLEQTVEQMKQNETTAMKKQQELMDENFDLSKRLSENEIICNALQRQKERLEGENDLLKRENSRLLSYMGLDFNSLPYQVPTSDEGGARQNPGLAYGNPYSGIQESSSPSPLSIKKCPICKADDICDHTLEQQQMQPLCFNCPICDKIFPATEKQIFEDHVFCHSL
binding [3]: no binding

Where two headings read alike, the source gives them in different places. No constants are given. Whether binding was seen depends on the method and setting. In cells and extracts the contact can be indirect. Here binding means that the protein was enriched with, or labelled near, the bait; the list need not be complete. For part of these data: No binding means not detected with the bait.
